# Test results from paper PMC6069109, “An Aspartate-Specific Solute-Binding Protein Regulates Protein Kinase G Activity To Control Glutamate Metabolism in Mycobacteria” (mBio, 2018).
# These are yes or no findings as the source states them, for the method shown.
# Target: M. tuberculosis GlnH, predicted soluble domain (M. tuberculosis H37Rv) (UniProt P96257)
# Assay: SEC; […] (16/60), 20 mM Tris-acetate (pH 7.5)-20 mM NaCl; […]; both purified
substance,measurement,value
"M. tuberculosis GlnH, predicted soluble domain (from UniProt P96257 27-328) (domain or fragment)",binding,no binding
